Source: patent US20250149635A1, “SILICATE PLATFORM AS WEAKLY-COORDINATING ANIONS FOR DIVERSE ORGANOMETALLIC TRANSFORMATIONS AND ELECTROCHEMICAL APPLICATIONS” (California Institute of Technology, priority 2023, published 2025)

Assay: Cyclic voltammetry of Mg deposition/stripping in DME
Format: physicochemical
Conditions: for coulombic efficiency: 0.25-0.26 M in DME with 10 mM Me2Mg, 100 cycles
Method: FIG. 14A: Cyclic voltammetry experiments of 0.26 M 1-[Mg(DME)3] with 10 mM of Me2Mg. WE: Pt wire; CE: Mg strip; RE: Mg strip; Scan rate: 25 mVs^−1; Cycling protocol: −0.8 V to 4.0 V, 100 cycles. FIG. 14B: Cycles 1, 25, 50, 75, 100. FIG. 14C: Coulombic efficiency cycles 1-100; Cyclic voltammetry experiments of 0.26 M 1-[Mg(DME)3] with 10 mM of Me2Mg.
FIG. 15A: Cyclic voltammetry experiments of 0.25 M 2-[Mg(DME)3] with 10 mM of Me2Mg. WE: Pt wire; CE: Mg strip; RE: Mg strip; Scan rate: 25 mVs^−1; Cycling protocol: −0.8 V to 3.8 V, 100 cycles; FIG. 15B: Cycles 1, 25, 50, 75, 100. FIG. 15C: Coulombic efficiency cycles 1-100; Cyclic voltammetry experiments of 0.25 M 2-[Mg(DME)3] with 10 mM of Me2Mg.
FIG. 20: Cyclic voltammetry experiments of 0.26 M 1-[Mg(DME)3] in DME.WE: Pt wire; CE: Mg strip; RE: Mg strip; Scan rate: 25 mVs^−1; Cycling protocol: −0.8 V to 4.0 V, 200 cycles.
Cyclic voltammetry experiments of 1-[Mg(DME)3] were run in an empty N2-filled glovebox fitted with a purifier system that consists of a purifier cartridge (ca. 50% activated 4 Å molecular sieves and activated Cu catalyst) and a circulator fan, no solvent or chemicals were stored in the glovebox. Electrolyte solutions were prepared in a separate glovebox by dissolving 1-[Mg(DME)3] in 500 μL of DME and stirred with a new Teflon stir bar until complete dissolution. DME and 1-[Mg(DME)3] were only used with the glovebox circulation purifier turned off after extensive (minimum 20 minutes at […] above atmospheric pressure to ensure full atmosphere exchange) purging of the glovebox atmosphere to avoid cross-contamination with other atmospheric solvents. Upon complete dissolution of the electrolyte, the electrolyte solution was sealed and transported to the electrochemistry glovebox immediately before electrochemical experiments were performed.
Mg electrodes (99.9%, MTI) were polished with a razor blade immediately before use. Pt electrodes (wire, 0.5 mm diameter, 99.995%, Thermo Scientific) were soaked in concentrated HNO3 for at least 72 hours, rinsed with deionized water at least thrice, annealed with an H2 torch, and immediately brought into the glovebox in a flame-dried 20 mL scintillation vial while hot. Cyclic voltammetry experiments of 1-[Mg(DME)3] were performed in glass cells with 0.5 mL of electrolyte. A Pt wire served as the working electrode (WE), and Mg foils were the counter and reference electrodes (CE and RE). Experiments of 1-[Mg(DME)3] were conducted on either a Biologic SP150 potentiostat or a Biologic VSP-300 potentiostat.

Row | Compound | coulombic efficiency | Mg deposition and stripping (in words) (0.26 M in DME with addition of 10 mM Me2Mg) | Mg deposition and stripping (in words) (0.26 M solution in DME, no Me2Mg)
1 | COCCOC.COCCOC.COCCOC.C[Si-]12(OC(C(F)(F)F)(C(F)(F)F)C(C(F)(F)F)(C(F)(F)F)O1)OC(C(F)(F)F)(C(F)(F)F)C(C(F)(F)F)(C(F)(F)F)O2.C[Si-]12(OC(C(F)(F)F)(C(F)(F)F)C(C(F)(F)F)(C(F)(F)F)O1)OC(C(F)(F)F)(C(F)(F)F)C(C(F)(F)F)(C(F)(F)F)O2.[Mg+2] [1-[Mg(DME)3], [Mg(DME)3][^MeSi^F24]2] | ca. 97% | remarkably stable, conditioning-free Mg deposition and stripping from cycle 1 | reversible deposition and stripping of Mg from cycle 1
2 | [Mg(DME)3][^PhSi^F24]2 [2-[Mg(DME)3]] | ca. 99% |  | 
